The record followed here is PubChem BioAssay AID330 (DTP/NCI, 2004).

Structures are written as SMILES. The list does not hold the whole screen: it gathers tests that were run many times, whatever their T/C, doses with no T/C, and many T/C values between a quarter and a half above the control. Other doses and runs of a compound stand elsewhere. T/C: endpoint of the treated group in % of that of the vehicle group. Some doses have a count of surviving animals in place of a T/C: the source holds a T/C of zero for them, seemingly a mark for toxic or unscored doses. Some survivor counts are full or nearly so, which does not show that the dose was tolerated: survival well below the control is almost never listed, so the zero probably covers shortened survival too. Survivors were counted at the toxicity check, usually on the fifth day, unless a day is given; later deaths do not show. Schedule codes are those of the source, taken here to give the interval after Q, in days (D) or hours (H), and the number of doses after X. Some doses were run more than once; the values are given in rising order. For survival time, the PubChem record calls one and a half times the control and up active, and a quarter to a half above the control has no call in these data; cut-offs in other NCI protocols can differ. Some T/C values are followed by the survivors on the day toxicity was checked, most often the fifth; without a count, all were alive then.

In the assay the test system is P388 leukemia ip, CD2F1 mice, survival T/C. The assay is described as follows: NCI In Vivo Anticancer Drug Screen. Data for tumor model P388 Leukemia (intraperitoneal) in CD2F1 (CDF1) mice. To be noted: T/C endpoint: median survival time, higher T/C = longer survival.
[1] abbreviates: dose: 100.0 mg/kg/injection, schedule: Q01DX009 (ip), vehicle: Klucel (hydroxypropylcellulose) (HPC).
Setting [2] is: dose: 200.0 mg/kg/injection, schedule: Q01DX009 (ip), vehicle: Klucel (hydroxypropylcellulose) (HPC).
[3] abbreviates: dose: 50.0 mg/kg/injection, schedule: Q01DX009 (ip), vehicle: saline.
The mark [4] stands for this setting: dose: 100.0 mg/kg/injection, schedule: Q01DX009 (ip), vehicle: saline.
Where [5] appears, read: dose: 200.0 mg/kg/injection, schedule: Q01DX009 (ip), vehicle: saline.
The mark [6] stands for this setting: dose: 25.0 mg/kg/injection, schedule: Q01DX009 (ip), vehicle: Klucel (hydroxypropylcellulose) (HPC).
[7] abbreviates: dose: 50.0 mg/kg/injection, schedule: Q01DX009 (ip), vehicle: Klucel (hydroxypropylcellulose) (HPC).
Setting [8] is: dose: 12.5 mg/kg/injection, schedule: Q01DX005 (ip), vehicle: Klucel (hydroxypropylcellulose) (HPC).
[9] abbreviates: dose: 50.0 mg/kg/injection, schedule: Q04DX002 (ip), vehicle: saline with Tween-80.
[10] abbreviates: dose: 100.0 mg/kg/injection, schedule: Q04DX002 (ip), vehicle: saline with Tween-80.
[11] abbreviates: dose: 200.0 mg/kg/injection, schedule: Q01DX005 (ip), vehicle: saline with Tween-80.
The mark [12] stands for this setting: dose: 100.0 mg/kg/injection, schedule: Q01DX009 (ip), vehicle: suspension in saline.

Turning to `CCCOc1ccc(C(N)=S)cc1`, the survivor count is, setting by setting: under setting [1], 6 of 6; under setting [2], 0 of 6.

As to `COC(=O)c1cn(C2OC(CO)C(O)C2O)c2ncnc(N)c12` (stereo not given), the survivor count (dose: 30.0 mg/kg/injection, schedule: Q01DX005 (ip), vehicle: saline with Tween-80) is 6 of 6; the survivor count (dose: 60.0 mg/kg/injection, schedule: Q01DX005 (ip), vehicle: saline with Tween-80) is reported as 1 of 6; the survivor count (dose: 120.0 mg/kg/injection, schedule: Q01DX005 (ip), vehicle: saline with Tween-80) was 3 of 6; the survivor count (dose: 240.0 mg/kg/injection, schedule: Q01DX005 (ip), vehicle: saline with Tween-80) was 0 of 6.

With `Cc1c(Cl)cccc1NC(=O)c1cccc([N+](=O)[O-])c1O`, the survivor count (dose: 200.0 mg/kg/injection, schedule: Q01DX009 (ip), vehicle: saline with Tween-80) is given as 3 of 6.

Regarding `CCCCCCCCCCCC[N+]1(CC)CCCCC1`, the survivor count (dose: 3.12 mg/kg/injection, schedule: Q01DX009 (ip), vehicle: saline) is given as 2 of 6; the survivor count (dose: 6.25 mg/kg/injection, schedule: Q01DX009 (ip), vehicle: saline) is 5 of 6; the survivor count (dose: 12.5 mg/kg/injection, schedule: Q01DX009 (ip), vehicle: saline) is listed as 2 of 6; the survivor count under setting [3] is 0 of 6; the survivor count under setting [4] is given as 0 of 6; the survivor count under setting [5] is given as 0 of 6.

`CC(C)CCC(=O)OCCN1CCN(CCCN2c3ccccc3Sc3ccc(C(F)(F)F)cc32)CC1`: the T/C is 134 % of control (dose: 12.5 mg/kg/injection, schedule: Q01DX009 (ip), vehicle: Klucel (hydroxypropylcellulose) (HPC)); 129 % of control under setting [6]; 122 % of control [5 of 6 alive] under setting [7]. Moreover, the survivor count under setting [6] was 6 of 6; the survivor count under setting [7] is on record as 2 of 6, 3 of 6, 6 of 6; the survivor count under setting [1] is 0 of 6, 3 of 6, 4 of 6; the survivor count under setting [2] was 0 of 6.

In the case of `C[CH2][Sn]([CH2]C)([n]1cnc2ccccc21)[n]1cnc2ccccc21`, the T/C is, setting by setting: (dose: 3.12 mg/kg/injection, schedule: Q01DX005 (ip), vehicle: Klucel (hydroxypropylcellulose) (HPC)) 129 % of control; under setting [8], 126 % of control. Also, the survivor count was 1 of 6 under setting [8]; 0 of 6 (dose: 50.0 mg/kg/injection, schedule: Q01DX005 (ip), vehicle: Klucel (hydroxypropylcellulose) (HPC)); 0 of 6 (dose: 100.0 mg/kg/injection, schedule: Q01DX005 (ip), vehicle: Klucel (hydroxypropylcellulose) (HPC)); 0 of 6 (dose: 200.0 mg/kg/injection, schedule: Q01DX005 (ip), vehicle: Klucel (hydroxypropylcellulose) (HPC)).

`Nc1ccc(-c2nc(N)c3[nH]cnc3n2)cc1`: the survivor count (dose: 200.0 mg/kg/injection, schedule: Q01DX005 (ip), vehicle: suspension in saline) was 0 of 5.

Consider `COCn1cc(C(N)=O)c(=O)c2c(N)nc(SC)nc21`, for which the survivor count is 6 of 6 under setting [9] and 6 of 6 under setting [10].

For `CC1=CCC(C(C)(O)C2CCC3(C)C4=C(C=C5C=CC(=O)OC(C)(C)C5CC4)CCC23C)OC1=O` (stereo not given), the survivor count by setting is: (dose: 50.0 mg/kg/injection, schedule: Q01DX005 (ip), vehicle: other) 6 of 6; (dose: 100.0 mg/kg/injection, schedule: Q01DX005 (ip), vehicle: other) 6 of 6.

`COc1cccc2c1C(=O)c1c(O)c3c(c(O)c1C2=O)C[C@@](O)(c1csc(-c2ccncc2)n1)C[C@@H]3OC1CC(N)C(O)C(C)O1` (stereo not given in full): under “dose: 100.0 mg/kg/injection, schedule: Q04DX003 (ip), vehicle: water”, the T/C is 135 % of control.

On to `FC(F)(F)c1nc2nc(Cl)c(Cl)nc2[nH]1`, for which the T/C (dose: 100.0 mg/kg/injection, schedule: Q04DX003 (ip), vehicle: other) was 127 % of control [5 of 6 alive].

In the case of `CNc1nc(-c2ccccc2)c(-c2ccccc2)[nH]1`, the survivor count is reported as 0 of 6 (dose: 100.0 mg/kg/injection, schedule: Q04DX002 (ip), vehicle: saline); 0 of 6 (dose: 200.0 mg/kg/injection, schedule: Q04DX002 (ip), vehicle: saline); 0 of 6 (dose: 400.0 mg/kg/injection, schedule: Q04DX002 (ip), vehicle: saline).

As to `CCN(CC)CC.[CH-]1CCCCC1.[CH-]1CCCCC1.[CH3-].[Cl-].[I-].[Sn+4]`, the survivor count is, setting by setting: (dose: 25.0 mg/kg/injection, schedule: Q01DX005 (ip), vehicle: saline with Tween-80) 1 of 6; (dose: 50.0 mg/kg/injection, schedule: Q01DX005 (ip), vehicle: saline with Tween-80) 0 of 6; (dose: 100.0 mg/kg/injection, schedule: Q01DX005 (ip), vehicle: saline with Tween-80) 0 of 6; under setting [11], 0 of 6.

Regarding `CN(C)N1C(=O)c2c(Cl)c(Cl)c(Cl)c(Cl)c2C1=O`, the survivor count under setting [11] is given as 6 of 6.

With `O=c1[nH]cnc2ncnn12`, the survivor count under setting [12] was 6 of 6.

As to `O=[N+]([O-])c1ccc(Sc2ccncn2)c([N+](=O)[O-])c1`, the T/C is 127 % of control under setting [3] and 125 % of control [5 of 6 alive] under setting [4]. The survivor count under setting [5] is recorded as 0 of 6.

For `NC1(c2ccccc2)C2CC3CC(C2)CC1C3` (stereo not given), the survivor count by setting is: (dose: 200.0 mg/kg/injection, schedule: Q04DX003 (ip), vehicle: Klucel (hydroxypropylcellulose) (HPC)) 1 of 6; (dose: 400.0 mg/kg/injection, schedule: Q04DX003 (ip), vehicle: Klucel (hydroxypropylcellulose) (HPC)) 0 of 6.

For `c1cc(-n2nnc3cnccc32)ccn1`, the survivor count is on record as 2 of 6 (dose: 25.0 mg/kg/injection, schedule: Q01DX009 (ip), vehicle: saline); 5 of 6 (dose: 50.0 mg/kg/injection, schedule: Q01DX009 (ip), vehicle: suspension in saline); 2 of 6 under setting [12]; 0 of 6 (dose: 200.0 mg/kg/injection, schedule: Q01DX009 (ip), vehicle: suspension in saline).

With `COc1ccccc1C1=[N+]([O-])C(C)(C)C(c2ccccc2)C1` (stereo not given), under “dose: 400.0 mg/kg/injection, schedule: Q04DX002 (ip), vehicle: Klucel (hydroxypropylcellulose) (HPC)”, the survivor count is recorded as 4 of 6.

Regarding `CCN(CC)CCN1CC(=O)N2Cc3ccccc3CN2C(=O)C1`, the survivor count under setting [11] was 1 of 5.

In the case of `COc1ccc2c(c1)CCC1=C2N=CN2CCN=C12`, the survivor count (dose: 200.0 mg/kg/injection, schedule: Q04DX002 (ip), vehicle: saline with Tween-80) was 0 of 6 and the survivor count (dose: 400.0 mg/kg/injection, schedule: Q04DX002 (ip), vehicle: saline with Tween-80) was 0 of 6.

For `[I][Pt+2][I].[NH-]C(c1ccccc1)C([NH-])c1ccccc1` (stereo not given), the T/C reads like this: under setting [9], 128 % of control; under setting [10], 128 % of control.

For `COc1cc(NCCN(C)C(C)Cc2ccccc2)c2ncccc2c1` (stereo not given), the survivor count (dose: 200.0 mg/kg/injection, schedule: Q01DX005 (ip), vehicle: saline) is on record as 0 of 5.

As to `CN(C)c1ccc(N=O)cc1`, the survivor count (dose: 0.78 mg/kg/injection, schedule: Q01DX009 (ip), vehicle: saline) is 6 of 6.

Consider `O=c1cc[nH]cc1[N+](=O)[O-]`, for which the survivor count (dose: 400.0 mg/kg/injection, schedule: Q01DX009 (ip), vehicle: saline) is 0 of 6 and 3 of 6.
